Amino acid sequences for entries named in this document (tags omitted). A change or cut given only in a name is not applied to a line headed by its entry. Residues count along the entry.
UniProt Q9GZS1: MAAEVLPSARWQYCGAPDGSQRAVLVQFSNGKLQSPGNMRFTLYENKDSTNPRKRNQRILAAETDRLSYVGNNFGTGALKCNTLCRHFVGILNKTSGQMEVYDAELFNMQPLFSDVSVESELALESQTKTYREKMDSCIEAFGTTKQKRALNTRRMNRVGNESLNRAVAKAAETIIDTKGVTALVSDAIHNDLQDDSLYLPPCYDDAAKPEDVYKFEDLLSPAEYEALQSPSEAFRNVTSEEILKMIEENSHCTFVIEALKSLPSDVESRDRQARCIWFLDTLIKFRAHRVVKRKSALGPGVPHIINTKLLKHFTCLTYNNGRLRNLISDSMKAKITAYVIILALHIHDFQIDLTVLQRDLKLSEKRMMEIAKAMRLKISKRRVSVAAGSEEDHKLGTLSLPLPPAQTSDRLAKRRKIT
UniProt O95602: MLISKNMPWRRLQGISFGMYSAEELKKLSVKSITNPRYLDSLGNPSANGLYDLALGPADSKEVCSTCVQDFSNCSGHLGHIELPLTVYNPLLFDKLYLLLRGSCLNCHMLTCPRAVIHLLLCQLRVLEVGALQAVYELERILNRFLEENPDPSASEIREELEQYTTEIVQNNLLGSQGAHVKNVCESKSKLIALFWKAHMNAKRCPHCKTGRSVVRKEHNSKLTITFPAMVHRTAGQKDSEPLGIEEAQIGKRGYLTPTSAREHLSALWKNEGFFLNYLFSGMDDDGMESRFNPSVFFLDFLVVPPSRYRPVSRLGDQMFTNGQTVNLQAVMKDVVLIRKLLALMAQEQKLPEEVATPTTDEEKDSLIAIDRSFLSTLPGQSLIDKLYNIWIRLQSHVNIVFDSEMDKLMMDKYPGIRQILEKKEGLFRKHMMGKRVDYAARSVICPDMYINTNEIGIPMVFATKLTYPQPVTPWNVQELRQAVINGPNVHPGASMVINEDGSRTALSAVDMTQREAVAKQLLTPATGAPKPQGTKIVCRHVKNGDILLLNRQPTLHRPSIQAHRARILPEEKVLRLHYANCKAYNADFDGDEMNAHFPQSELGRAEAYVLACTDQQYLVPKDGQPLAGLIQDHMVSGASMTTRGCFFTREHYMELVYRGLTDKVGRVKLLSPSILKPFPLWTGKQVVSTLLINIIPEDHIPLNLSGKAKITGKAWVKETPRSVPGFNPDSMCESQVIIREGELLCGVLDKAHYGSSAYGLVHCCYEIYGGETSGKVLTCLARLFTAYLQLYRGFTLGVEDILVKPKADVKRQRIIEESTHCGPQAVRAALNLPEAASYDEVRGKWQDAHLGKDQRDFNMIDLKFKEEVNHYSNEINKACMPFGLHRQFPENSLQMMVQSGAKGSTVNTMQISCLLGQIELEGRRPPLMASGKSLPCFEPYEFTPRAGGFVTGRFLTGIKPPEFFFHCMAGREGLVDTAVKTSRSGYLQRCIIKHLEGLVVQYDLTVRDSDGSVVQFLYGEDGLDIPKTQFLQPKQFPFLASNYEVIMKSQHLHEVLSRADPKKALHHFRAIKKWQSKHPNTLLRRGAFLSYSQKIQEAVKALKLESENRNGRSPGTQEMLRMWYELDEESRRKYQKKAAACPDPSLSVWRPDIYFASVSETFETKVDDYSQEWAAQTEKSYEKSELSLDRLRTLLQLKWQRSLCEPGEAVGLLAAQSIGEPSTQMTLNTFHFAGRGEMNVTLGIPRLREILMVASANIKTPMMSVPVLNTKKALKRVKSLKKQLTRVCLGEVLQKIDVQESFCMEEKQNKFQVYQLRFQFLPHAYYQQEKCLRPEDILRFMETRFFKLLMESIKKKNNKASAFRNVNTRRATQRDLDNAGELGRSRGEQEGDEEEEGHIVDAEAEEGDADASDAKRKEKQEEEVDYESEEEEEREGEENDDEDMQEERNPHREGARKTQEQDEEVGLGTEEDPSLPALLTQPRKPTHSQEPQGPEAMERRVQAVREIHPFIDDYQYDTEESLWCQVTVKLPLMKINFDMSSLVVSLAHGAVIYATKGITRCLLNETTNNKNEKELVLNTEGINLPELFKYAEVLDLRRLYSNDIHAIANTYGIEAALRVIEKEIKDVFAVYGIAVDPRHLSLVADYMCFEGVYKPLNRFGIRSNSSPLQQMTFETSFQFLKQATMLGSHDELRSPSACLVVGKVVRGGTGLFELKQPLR
UniProt P28340: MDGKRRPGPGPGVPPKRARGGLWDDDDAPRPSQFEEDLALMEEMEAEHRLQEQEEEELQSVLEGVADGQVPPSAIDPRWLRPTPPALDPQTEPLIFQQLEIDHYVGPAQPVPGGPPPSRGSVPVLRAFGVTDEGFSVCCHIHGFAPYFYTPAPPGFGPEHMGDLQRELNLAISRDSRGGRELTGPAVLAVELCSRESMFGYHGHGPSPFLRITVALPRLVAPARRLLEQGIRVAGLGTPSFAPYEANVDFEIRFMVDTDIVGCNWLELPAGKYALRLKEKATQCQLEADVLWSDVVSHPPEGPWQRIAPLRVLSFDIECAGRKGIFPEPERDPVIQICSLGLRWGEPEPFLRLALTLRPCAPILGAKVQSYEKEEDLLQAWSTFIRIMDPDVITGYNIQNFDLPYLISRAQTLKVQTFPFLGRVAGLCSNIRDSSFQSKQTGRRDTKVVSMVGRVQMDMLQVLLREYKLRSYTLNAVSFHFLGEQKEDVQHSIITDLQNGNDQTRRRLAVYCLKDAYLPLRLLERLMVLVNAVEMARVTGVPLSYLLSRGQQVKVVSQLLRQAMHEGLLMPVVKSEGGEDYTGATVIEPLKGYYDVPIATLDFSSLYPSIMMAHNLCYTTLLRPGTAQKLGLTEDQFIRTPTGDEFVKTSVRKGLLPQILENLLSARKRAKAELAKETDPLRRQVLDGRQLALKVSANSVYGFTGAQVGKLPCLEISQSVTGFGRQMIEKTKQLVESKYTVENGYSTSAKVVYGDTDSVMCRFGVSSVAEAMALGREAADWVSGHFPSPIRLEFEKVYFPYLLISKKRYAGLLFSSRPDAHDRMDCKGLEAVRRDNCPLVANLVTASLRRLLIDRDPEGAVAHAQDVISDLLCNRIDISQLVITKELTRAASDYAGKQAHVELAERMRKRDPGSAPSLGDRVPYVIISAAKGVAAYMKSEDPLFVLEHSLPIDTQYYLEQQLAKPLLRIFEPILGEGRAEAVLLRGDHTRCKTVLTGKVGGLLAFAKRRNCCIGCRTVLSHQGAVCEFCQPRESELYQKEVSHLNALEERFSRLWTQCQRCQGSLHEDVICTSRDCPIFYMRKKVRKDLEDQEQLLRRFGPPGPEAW
UniProt O00443: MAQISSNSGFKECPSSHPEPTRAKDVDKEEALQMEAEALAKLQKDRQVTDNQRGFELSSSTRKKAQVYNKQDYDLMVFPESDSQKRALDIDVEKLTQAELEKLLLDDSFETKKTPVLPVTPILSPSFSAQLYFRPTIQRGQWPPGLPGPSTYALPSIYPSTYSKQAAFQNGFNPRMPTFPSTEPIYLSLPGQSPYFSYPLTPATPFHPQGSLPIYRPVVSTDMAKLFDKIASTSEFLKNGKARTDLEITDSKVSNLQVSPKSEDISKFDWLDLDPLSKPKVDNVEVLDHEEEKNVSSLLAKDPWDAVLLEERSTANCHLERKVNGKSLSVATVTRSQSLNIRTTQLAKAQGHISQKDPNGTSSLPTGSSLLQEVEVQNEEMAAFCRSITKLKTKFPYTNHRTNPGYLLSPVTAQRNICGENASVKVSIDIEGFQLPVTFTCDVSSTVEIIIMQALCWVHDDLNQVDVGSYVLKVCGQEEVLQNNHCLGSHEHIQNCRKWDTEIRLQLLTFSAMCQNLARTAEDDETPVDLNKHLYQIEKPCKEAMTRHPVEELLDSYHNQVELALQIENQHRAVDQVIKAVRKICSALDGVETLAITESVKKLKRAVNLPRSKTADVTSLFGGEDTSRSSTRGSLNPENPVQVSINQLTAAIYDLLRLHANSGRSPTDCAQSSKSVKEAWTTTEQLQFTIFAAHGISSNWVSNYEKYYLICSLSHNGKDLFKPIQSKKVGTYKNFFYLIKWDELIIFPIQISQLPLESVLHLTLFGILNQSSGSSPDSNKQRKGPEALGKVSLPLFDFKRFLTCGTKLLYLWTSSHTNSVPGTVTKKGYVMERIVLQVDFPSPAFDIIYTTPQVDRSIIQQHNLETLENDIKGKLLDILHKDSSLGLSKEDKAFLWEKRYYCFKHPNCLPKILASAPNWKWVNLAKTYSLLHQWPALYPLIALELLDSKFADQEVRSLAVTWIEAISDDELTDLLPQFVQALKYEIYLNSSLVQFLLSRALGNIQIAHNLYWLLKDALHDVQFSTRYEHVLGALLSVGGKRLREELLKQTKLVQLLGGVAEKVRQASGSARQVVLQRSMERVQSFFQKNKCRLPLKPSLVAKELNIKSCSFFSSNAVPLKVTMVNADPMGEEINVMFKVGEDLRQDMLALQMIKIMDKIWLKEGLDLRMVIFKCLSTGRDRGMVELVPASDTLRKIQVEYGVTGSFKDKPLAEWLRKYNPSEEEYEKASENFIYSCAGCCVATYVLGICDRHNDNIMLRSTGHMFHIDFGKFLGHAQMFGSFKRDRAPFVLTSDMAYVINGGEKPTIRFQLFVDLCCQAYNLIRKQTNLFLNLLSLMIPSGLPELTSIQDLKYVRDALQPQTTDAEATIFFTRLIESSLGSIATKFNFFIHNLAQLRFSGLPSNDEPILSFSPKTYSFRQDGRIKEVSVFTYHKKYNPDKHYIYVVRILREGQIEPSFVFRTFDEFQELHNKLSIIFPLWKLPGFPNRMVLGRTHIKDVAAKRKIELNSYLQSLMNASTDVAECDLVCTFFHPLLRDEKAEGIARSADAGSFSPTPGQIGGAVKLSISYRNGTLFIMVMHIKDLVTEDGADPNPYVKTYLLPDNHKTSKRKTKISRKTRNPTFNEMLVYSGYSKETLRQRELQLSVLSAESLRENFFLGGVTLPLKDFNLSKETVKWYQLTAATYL
UniProt Q8IY17: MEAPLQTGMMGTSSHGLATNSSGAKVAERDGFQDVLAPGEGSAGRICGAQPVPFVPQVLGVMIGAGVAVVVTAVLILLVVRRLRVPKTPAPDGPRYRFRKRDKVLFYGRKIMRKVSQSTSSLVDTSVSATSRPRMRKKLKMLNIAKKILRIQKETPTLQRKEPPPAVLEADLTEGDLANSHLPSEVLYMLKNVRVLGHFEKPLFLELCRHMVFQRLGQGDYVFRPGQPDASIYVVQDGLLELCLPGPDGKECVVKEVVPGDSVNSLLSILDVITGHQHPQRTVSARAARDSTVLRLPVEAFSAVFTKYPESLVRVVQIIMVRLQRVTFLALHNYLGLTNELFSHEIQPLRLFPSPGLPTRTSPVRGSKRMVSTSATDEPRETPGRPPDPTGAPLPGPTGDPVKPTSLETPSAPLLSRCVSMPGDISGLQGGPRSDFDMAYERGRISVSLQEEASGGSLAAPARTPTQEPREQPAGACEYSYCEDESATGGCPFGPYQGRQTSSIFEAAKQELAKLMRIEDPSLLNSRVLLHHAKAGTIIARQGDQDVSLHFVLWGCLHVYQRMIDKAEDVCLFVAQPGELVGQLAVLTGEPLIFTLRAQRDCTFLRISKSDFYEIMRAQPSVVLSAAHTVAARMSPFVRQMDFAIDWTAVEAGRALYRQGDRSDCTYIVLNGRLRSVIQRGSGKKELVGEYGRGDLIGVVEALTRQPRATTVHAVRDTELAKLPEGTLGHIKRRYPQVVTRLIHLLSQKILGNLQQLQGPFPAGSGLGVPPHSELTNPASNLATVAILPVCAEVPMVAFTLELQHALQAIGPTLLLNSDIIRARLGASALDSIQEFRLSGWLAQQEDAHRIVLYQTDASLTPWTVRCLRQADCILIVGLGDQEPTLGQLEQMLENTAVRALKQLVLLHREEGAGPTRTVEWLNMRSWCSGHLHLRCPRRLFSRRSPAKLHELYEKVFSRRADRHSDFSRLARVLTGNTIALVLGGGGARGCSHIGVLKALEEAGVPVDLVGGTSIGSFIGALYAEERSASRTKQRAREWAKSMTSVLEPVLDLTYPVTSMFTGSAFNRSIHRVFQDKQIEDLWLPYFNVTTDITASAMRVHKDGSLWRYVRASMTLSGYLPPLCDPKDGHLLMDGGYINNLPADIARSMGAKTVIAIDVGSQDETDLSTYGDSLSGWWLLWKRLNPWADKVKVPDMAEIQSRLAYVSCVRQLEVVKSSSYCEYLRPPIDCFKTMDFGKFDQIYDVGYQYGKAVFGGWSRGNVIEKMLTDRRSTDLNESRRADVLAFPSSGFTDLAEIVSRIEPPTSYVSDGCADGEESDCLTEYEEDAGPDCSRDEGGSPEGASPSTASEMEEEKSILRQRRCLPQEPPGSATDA
UniProt O75925, 421-453: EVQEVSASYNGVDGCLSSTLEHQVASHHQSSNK
UniProt P53350, 365-392: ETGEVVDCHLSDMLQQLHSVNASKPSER
UniProt P42356, 8-28: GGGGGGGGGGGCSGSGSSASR

The other results are listed elsewhere or left out. The data scatter; read single values as rough.
These targets were tested with ClCC(=O)N[C@@H]1CCCc2ccccc12 (assay: log2 mean competition ratio of IA-DTB cysteine labelling (DMSO/compound) (log2 ratio); higher = stronger cysteine engagement by compound). Details: 50 µM; treatment time: 4 h; cell line lysate: HEK293T.
Method: (§1)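 IA-DTB competitive cysteine chemoproteomics in HEK293T RIPA lysate. Lysates were treated with compound 29 or 30 at 50 or 200 µM for 4 h, then IA-DTB (500 µM, 1 h), trypsin-digested, NeutrAvidin-enriched and analysed by diaPASEF. Competition ratio = intensity DMSO / intensity compound (n=4 treated, n=64 DMSO); binding: mean log2 CR ≥ 1 and p ≤ 0.05 plus QC filters. Target is the cysteine site.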
With PLEC C4454 (UniProt Q15149) the “log2 mean competition ratio” value was -0.521.
POLA1 C514 (UniProt P09884) was tested, and the “log2 mean competition ratio” value was 0.2.
With POLR1E C138 (UniProt Q9GZS1) the “log2 mean competition ratio” value was -0.0721.
For PIP4K2C C104 (UniProt Q8TBX8), the “log2 mean competition ratio” value was 0.00677.
With PLAAT3 C113 the “log2 mean competition ratio” value was 0.172.
With PIEZO1 C95 (UniProt Q92508) the “log2 mean competition ratio” value was -0.151.
For POLR1A C822 (UniProt O95602), the “log2 mean competition ratio” value was -0.025.
With PIAS3 C327 the “log2 mean competition ratio” value was -0.113.
In the case of PKP2 C416 (UniProt Q99959), the “log2 mean competition ratio” value is reported as -0.225.
In the case of POLD1 C1058 (UniProt P28340), the “log2 mean competition ratio” value is reported as 0.0157.
For PIK3C2A C908 (UniProt O00443), the “log2 mean competition ratio” value was 0.333.
In the case of PIK3C2A C13 (UniProt O00443), the “log2 mean competition ratio” value is reported as -0.0192.
PLEKHM2 C340 (UniProt Q8IWE5) was tested, and the “log2 mean competition ratio” value was -0.0615.
For PLEKHA3 C94 (UniProt Q9HB20), the “log2 mean competition ratio” value was -0.0366.
In the case of POLR1B C847 (UniProt Q9H9Y6), the “log2 mean competition ratio” value is reported as 0.0636.
With PIK3CD C90 (UniProt O00329) the “log2 mean competition ratio” value was -0.196.
For PNPLA6 C418 (UniProt Q8IY17), the “log2 mean competition ratio” value was 0.414.
In the case of PHRF1 C1123 (UniProt Q9P1Y6), the “log2 mean competition ratio” value is reported as -0.053.
In the case of PIAS1 C435 (UniProt O75925), the “log2 mean competition ratio” value is reported as -0.634.
With POLD1 C512 (UniProt P28340) the “log2 mean competition ratio” value was 0.659.
In the case of PHF3 C1709 (UniProt Q92576), the “log2 mean competition ratio” value is reported as 0.465.
In the case of PLEKHH3 C682, the “log2 mean competition ratio” value is reported as 0.321.
For PIGA C28 (UniProt P37287), the “log2 mean competition ratio” value was 0.704.
PNPO C156 (UniProt Q9NVS9) was tested, and the “log2 mean competition ratio” value was 0.153.
With POC1A C5 (UniProt Q8NBT0) the “log2 mean competition ratio” value was -0.484.
With PITRM1 C780 (UniProt Q5JRX3) the “log2 mean competition ratio” value was -0.0415.
With POLG C1130 the “log2 mean competition ratio” value was -0.309.
For PIKFYVE C1970 (UniProt Q9Y2I7), the “log2 mean competition ratio” value was -0.434.
PLK1 C372 (UniProt P53350) was tested, and the “log2 mean competition ratio” value was 0.147.
With POLD1 C428 (UniProt P28340) the “log2 mean competition ratio” value was 0.348.
PMPCB C419 (UniProt O75439) was tested, and the “log2 mean competition ratio” value was -0.458.
For PHKA1 C937 (UniProt P46020), the “log2 mean competition ratio” value was -0.139.
PI4KB C435 (UniProt Q9UBF8) was tested, and the “log2 mean competition ratio” value was -0.0921.
PIK3C2A C541 (UniProt O00443) was tested, and the “log2 mean competition ratio” value was 0.0426.
PLEKHA3 C216 (UniProt Q9HB20) was tested, and the “log2 mean competition ratio” value was -0.183.
With PITX1 C156 (UniProt P78337) the “log2 mean competition ratio” value was -0.11.
For PI4KA C19 (UniProt P42356), the “log2 mean competition ratio” value was -0.235.

Same assay, conditions: 200 µM; treatment time: 4 h; cell line lysate: HEK293T
For PLEC C4454 (UniProt Q15149), the “log2 mean competition ratio” value was -0.403.
For POLA1 C514 (UniProt P09884), the “log2 mean competition ratio” value was 0.445.
POLR1E C138 (UniProt Q9GZS1) was tested, and the “log2 mean competition ratio” value was -0.0855.
With PIP4K2C C104 (UniProt Q8TBX8) the “log2 mean competition ratio” value was -0.0342.
In the case of PLAAT3 C113, the “log2 mean competition ratio” value is reported as 0.842.
In the case of PIEZO1 C95 (UniProt Q92508), the “log2 mean competition ratio” value is reported as 0.155.
In the case of POLR1A C822 (UniProt O95602), the “log2 mean competition ratio” value is reported as -0.138.
PIAS3 C327 was tested, and the “log2 mean competition ratio” value was -0.134.
In the case of PKP2 C416 (UniProt Q99959), the “log2 mean competition ratio” value is reported as -0.441.
With POLD1 C1058 (UniProt P28340) the “log2 mean competition ratio” value was 0.127.
With PIK3C2A C908 (UniProt O00443) the “log2 mean competition ratio” value was -0.154.
With PIK3C2A C13 (UniProt O00443) the “log2 mean competition ratio” value was -0.187.
In the case of PLEKHM2 C340 (UniProt Q8IWE5), the “log2 mean competition ratio” value is reported as 0.15.
In the case of PLEKHA3 C94 (UniProt Q9HB20), the “log2 mean competition ratio” value is reported as -0.123.
For POLR1B C847 (UniProt Q9H9Y6), the “log2 mean competition ratio” value was 0.318.
For PIK3CD C90 (UniProt O00329), the “log2 mean competition ratio” value was -0.491.
For PNPLA6 C418 (UniProt Q8IY17), the “log2 mean competition ratio” value was 0.0565.
In the case of PHRF1 C1123 (UniProt Q9P1Y6), the “log2 mean competition ratio” value is reported as 0.2.
For PIAS1 C435 (UniProt O75925), the “log2 mean competition ratio” value was 0.472.
In the case of POLD1 C512 (UniProt P28340), the “log2 mean competition ratio” value is reported as 0.304.
PHF3 C1709 (UniProt Q92576) was tested, and the “log2 mean competition ratio” value was 0.433.
With PLEKHH3 C682 the “log2 mean competition ratio” value was 0.125.
With PIGA C28 (UniProt P37287) the “log2 mean competition ratio” value was 0.463.
For PNPO C156 (UniProt Q9NVS9), the “log2 mean competition ratio” value was 0.036.
In the case of POC1A C5 (UniProt Q8NBT0), the “log2 mean competition ratio” value is reported as -0.275.
For PITRM1 C780 (UniProt Q5JRX3), the “log2 mean competition ratio” value was 0.0125.
For POLG C1130, the “log2 mean competition ratio” value was 0.535.
For PIKFYVE C1970 (UniProt Q9Y2I7), the “log2 mean competition ratio” value was 0.215.
For PLK1 C372 (UniProt P53350), the “log2 mean competition ratio” value was 0.37.
For POLD1 C428 (UniProt P28340), the “log2 mean competition ratio” value was 0.104.
PMPCB C419 (UniProt O75439) was tested, and the “log2 mean competition ratio” value was 0.0743.
For PHKA1 C937 (UniProt P46020), the “log2 mean competition ratio” value was -0.134.
PI4KB C435 (UniProt Q9UBF8) was tested, and the “log2 mean competition ratio” value was -0.0754.
With PIK3C2A C541 (UniProt O00443) the “log2 mean competition ratio” value was -0.0711.
In the case of PLEKHA3 C216 (UniProt Q9HB20), the “log2 mean competition ratio” value is reported as 0.377.
With PITX1 C156 (UniProt P78337) the “log2 mean competition ratio” value was -0.0088.
With PI4KA C19 (UniProt P42356) the “log2 mean competition ratio” value was 0.231.

Each target was assayed with ClCC(=O)N[C@H]1CCCc2ccccc12 in the same assay as above. Details: 50 µM; treatment time: 4 h; cell line lysate: HEK293T.
Method: as §1
With PLEC C4454 (UniProt Q15149) the “log2 mean competition ratio” value was 0.016.
With POLA1 C514 (UniProt P09884) the “log2 mean competition ratio” value was 0.133.
In the case of POLR1E C138 (UniProt Q9GZS1), the “log2 mean competition ratio” value is reported as 0.0128.
With PIEZO1 C95 (UniProt Q92508) the “log2 mean competition ratio” value was -0.0773.
For POLR1A C822 (UniProt O95602), the “log2 mean competition ratio” value was -0.268.
PIAS3 C327 was tested, and the “log2 mean competition ratio” value was -0.429.
In the case of POLD1 C1058 (UniProt P28340), the “log2 mean competition ratio” value is reported as 0.163.
PIK3C2A C13 (UniProt O00443) was tested, and the “log2 mean competition ratio” value was 0.108.
PLEKHM2 C340 (UniProt Q8IWE5) was tested, and the “log2 mean competition ratio” value was 0.0207.
With PLEKHA3 C94 (UniProt Q9HB20) the “log2 mean competition ratio” value was 0.387.
For POLR1B C847 (UniProt Q9H9Y6), the “log2 mean competition ratio” value was -0.641.
PIK3CD C90 (UniProt O00329) was tested, and the “log2 mean competition ratio” value was -0.00896.
With PNPLA6 C418 (UniProt Q8IY17) the “log2 mean competition ratio” value was 0.564.
In the case of PHRF1 C1123 (UniProt Q9P1Y6), the “log2 mean competition ratio” value is reported as -0.391.
For PIAS1 C435 (UniProt O75925), the “log2 mean competition ratio” value was -0.41.
POLD1 C512 (UniProt P28340) was tested, and the “log2 mean competition ratio” value was 0.556.
With PHF3 C1709 (UniProt Q92576) the “log2 mean competition ratio” value was 0.369.
For PLEKHH3 C682, the “log2 mean competition ratio” value was 0.464.
With PNPO C156 (UniProt Q9NVS9) the “log2 mean competition ratio” value was 0.0244.
PITRM1 C780 (UniProt Q5JRX3) was tested, and the “log2 mean competition ratio” value was 0.39.
With POLG C1130 the “log2 mean competition ratio” value was -0.186.
PIKFYVE C1970 (UniProt Q9Y2I7) was tested, and the “log2 mean competition ratio” value was -0.671.
For PLK1 C372 (UniProt P53350), the “log2 mean competition ratio” value was 0.0523.
POLD1 C428 (UniProt P28340) was tested, and the “log2 mean competition ratio” value was 0.419.
With PMPCB C419 (UniProt O75439) the “log2 mean competition ratio” value was 0.0395.
With PHKA1 C937 (UniProt P46020) the “log2 mean competition ratio” value was -0.000887.
PI4KB C435 (UniProt Q9UBF8) was tested, and the “log2 mean competition ratio” value was -0.124.
In the case of PIK3C2A C541 (UniProt O00443), the “log2 mean competition ratio” value is reported as -0.156.
With PLEKHA3 C216 (UniProt Q9HB20) the “log2 mean competition ratio” value was -0.214.
PITX1 C156 (UniProt P78337) was tested, and the “log2 mean competition ratio” value was 0.325.
For PI4KA C19 (UniProt P42356), the “log2 mean competition ratio” value was -0.422.
